T1: GS-tagged TIFY8 (TIFY8-GS) (Arabidopsis thaliana) (UniProt Q84MB2)
T1 sequence: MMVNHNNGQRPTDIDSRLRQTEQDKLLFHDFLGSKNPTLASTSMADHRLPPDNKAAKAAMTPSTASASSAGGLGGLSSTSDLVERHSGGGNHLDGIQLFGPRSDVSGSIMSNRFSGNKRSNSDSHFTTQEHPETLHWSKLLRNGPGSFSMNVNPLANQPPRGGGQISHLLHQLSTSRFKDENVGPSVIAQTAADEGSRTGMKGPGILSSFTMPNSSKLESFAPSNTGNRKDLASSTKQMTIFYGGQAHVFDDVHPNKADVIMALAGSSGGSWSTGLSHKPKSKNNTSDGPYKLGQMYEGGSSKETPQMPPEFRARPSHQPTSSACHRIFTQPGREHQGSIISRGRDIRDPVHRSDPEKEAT

Protein sequences, listed by entry. Tags and fused reporters are not part of them. Lines headed by an entry give the natural chain unless they say otherwise; changes in a name come on top.
UniProt Q9SV55: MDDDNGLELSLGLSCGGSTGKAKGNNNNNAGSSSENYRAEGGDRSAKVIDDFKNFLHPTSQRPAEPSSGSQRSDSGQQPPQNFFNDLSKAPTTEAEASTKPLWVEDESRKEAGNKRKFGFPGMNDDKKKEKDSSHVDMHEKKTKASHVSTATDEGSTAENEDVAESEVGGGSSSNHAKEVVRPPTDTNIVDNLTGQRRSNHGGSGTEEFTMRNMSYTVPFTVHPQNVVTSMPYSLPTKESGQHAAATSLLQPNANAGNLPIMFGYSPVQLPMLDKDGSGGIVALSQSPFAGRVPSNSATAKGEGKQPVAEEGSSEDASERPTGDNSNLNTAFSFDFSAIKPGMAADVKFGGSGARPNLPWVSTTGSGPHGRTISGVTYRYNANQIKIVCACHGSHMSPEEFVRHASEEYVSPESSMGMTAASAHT
UniProt Q0WNJ6: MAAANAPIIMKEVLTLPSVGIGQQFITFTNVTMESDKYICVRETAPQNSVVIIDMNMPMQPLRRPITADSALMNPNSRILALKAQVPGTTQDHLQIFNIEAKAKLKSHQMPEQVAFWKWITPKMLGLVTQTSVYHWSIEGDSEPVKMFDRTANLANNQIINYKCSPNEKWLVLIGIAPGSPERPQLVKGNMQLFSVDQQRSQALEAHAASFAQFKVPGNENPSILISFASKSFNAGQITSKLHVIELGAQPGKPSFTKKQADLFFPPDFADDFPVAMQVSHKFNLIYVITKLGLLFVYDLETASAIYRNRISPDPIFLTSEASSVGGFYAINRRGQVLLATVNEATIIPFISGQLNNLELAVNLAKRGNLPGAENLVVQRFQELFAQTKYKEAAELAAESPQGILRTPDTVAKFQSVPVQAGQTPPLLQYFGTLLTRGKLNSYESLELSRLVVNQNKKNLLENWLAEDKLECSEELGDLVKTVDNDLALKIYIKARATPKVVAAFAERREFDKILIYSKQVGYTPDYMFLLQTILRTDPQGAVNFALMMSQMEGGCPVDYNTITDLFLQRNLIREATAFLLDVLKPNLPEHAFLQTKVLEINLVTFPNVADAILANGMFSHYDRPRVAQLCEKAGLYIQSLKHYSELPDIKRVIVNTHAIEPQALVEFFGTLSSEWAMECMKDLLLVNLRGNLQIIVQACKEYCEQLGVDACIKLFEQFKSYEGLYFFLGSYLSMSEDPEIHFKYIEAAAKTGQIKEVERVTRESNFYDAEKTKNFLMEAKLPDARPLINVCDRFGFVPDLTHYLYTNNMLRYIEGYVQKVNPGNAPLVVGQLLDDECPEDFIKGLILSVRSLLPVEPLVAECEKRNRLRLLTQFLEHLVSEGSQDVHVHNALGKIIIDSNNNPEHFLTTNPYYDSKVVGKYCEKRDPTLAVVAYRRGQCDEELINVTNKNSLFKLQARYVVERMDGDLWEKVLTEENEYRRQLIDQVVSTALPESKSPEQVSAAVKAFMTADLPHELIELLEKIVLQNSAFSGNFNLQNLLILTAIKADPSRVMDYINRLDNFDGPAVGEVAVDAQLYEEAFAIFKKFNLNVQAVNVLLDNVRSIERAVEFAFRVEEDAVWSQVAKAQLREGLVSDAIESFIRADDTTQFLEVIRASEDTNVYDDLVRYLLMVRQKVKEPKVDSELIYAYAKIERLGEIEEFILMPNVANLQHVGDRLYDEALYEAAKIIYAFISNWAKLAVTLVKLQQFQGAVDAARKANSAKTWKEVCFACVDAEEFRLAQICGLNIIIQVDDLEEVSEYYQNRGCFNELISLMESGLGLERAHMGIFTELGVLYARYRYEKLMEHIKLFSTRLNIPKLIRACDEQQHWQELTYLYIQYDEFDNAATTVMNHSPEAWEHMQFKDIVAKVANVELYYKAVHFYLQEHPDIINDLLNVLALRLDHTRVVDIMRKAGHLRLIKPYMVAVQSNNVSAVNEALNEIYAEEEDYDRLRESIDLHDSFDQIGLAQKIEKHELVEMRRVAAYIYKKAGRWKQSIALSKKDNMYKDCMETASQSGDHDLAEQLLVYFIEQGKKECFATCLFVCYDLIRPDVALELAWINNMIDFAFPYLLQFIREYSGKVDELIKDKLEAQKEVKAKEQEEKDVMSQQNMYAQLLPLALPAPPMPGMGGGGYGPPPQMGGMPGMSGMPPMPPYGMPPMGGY
UniProt Q8GY55: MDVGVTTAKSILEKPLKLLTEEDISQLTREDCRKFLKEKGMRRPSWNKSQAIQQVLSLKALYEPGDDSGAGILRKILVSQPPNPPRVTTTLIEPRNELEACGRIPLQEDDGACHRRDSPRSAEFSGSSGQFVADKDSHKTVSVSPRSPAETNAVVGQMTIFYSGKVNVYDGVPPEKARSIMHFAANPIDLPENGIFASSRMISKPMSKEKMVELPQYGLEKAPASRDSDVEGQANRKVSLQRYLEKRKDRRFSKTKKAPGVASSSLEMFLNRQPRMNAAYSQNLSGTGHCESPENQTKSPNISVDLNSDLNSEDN
UniProt Q07100: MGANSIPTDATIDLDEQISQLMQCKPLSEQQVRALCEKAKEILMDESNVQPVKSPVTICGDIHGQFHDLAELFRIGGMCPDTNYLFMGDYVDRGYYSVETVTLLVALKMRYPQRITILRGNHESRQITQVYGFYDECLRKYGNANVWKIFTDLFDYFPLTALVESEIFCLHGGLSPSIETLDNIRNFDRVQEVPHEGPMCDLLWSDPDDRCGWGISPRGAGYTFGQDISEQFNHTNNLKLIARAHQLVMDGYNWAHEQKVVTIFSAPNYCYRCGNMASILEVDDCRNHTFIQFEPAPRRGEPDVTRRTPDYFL

B1: ATB alpha (protein, UniProt Q38821 1-513)
chain: MNGGDEVVAASADPSLPLEWRFSQVFGERSAGEEVQEVDIISAIEFDNSGNHLATGDRGGRVVLFERTDTNNSSGTRRELEEADYPLRHPEFRYKTEFQSHDPEFDYLKSLEIEEKINKIRWCQTANGALFLLSTNDKTIKFWKVQDKKIKKICDMNSDPSRTVGNGTVASSSNSNITNSCLVNGGVSEVNNSLCNDFSLPAGGISSLRLPVVVTSHESSPVARCRRVYAHAHDYHINSISNNSDGETFISADDLRINLWNLEISNQSFNIVDVKPAKMEDLSEVITSAEFHPTHCNMLAYSSSKGSIRLIDLRQSALCDSHSKLFEEPEQAGPKSFFTEIIASVSDIKFAKEGRYLLSRDYMTLKLWDINMDAGPVATFQVHEYLKPKLCDLYENDSIFDKFECCISGNGLRAATGSYSNLFRVFGVAPGSTETATLEASRNPMRRHVPIPSRPSRALSSITRVVSRGSESPGVDGNTNALDYTTKLLHLAWHPNENSIACAAANSLYMYYA
B2: UBIQUITIN-SPECIFIC PROTEASE UBP12 (enzyme, UniProt Q9FPT1 1-1116)
chain: MTMMTPPPVDQPEDEEMLVPNSDLVDGPAQPMEVTQPETAASTVENQPAEDPPTLKFTWTIPNFSRQNTRKHYSDVFVVGGYKWRILIFPKGNNVDHLSMYLDVSDAASLPYGWSRYAQFSLAVVNQIHTRYTVRKETQHQFNARESDWGFTSFMPLSELYDPSRGYLVNDTVLVEAEVAVRKVLDYWSYDSKKETGFVGLKNQGATCYMNSLLQTLYHIPYFRKAVYHMPTTENDAPTASIPLALQSLFYKLQYNDTSVATKELTKSFGWDTYDSFMQHDVQELNRVLCEKLEDKMKGTVVEGTIQQLFEGHHMNYIECINVDFKSTRKESFYDLQLDVKGCKDVYASFDKYVEVERLEGDNKYHAEGHGLQDAKKGVLFIDFPPVLQLQLKRFEYDFMRDTMVKINDRYEFPLELDLDREDGKYLSPDADRSVRNLYTLHSVLVHSGGVHGGHYYAFIRPTLSDQWYKFDDERVTKEDLKRALEEQYGGEEELPQTNPGFNNNPPFKFTKYSNAYMLVYIRESDKDKIICNVDEKDIAEHLRVRLKKEQEEKEDKRRYKAQAHLYTIIKVARDEDLKEQIGKDIYFDLVDHDKVRSFRIQKQTPFQQFKEEVAKEFGVPVQLQRFWIWAKRQNHTYRPNRPLTPQEELQPVGQIREASNKANTAELKLFLEVEHLDLRPIPPPEKSKEDILLFFKLYDPEKAVLSYAGRLMVKSSSKPMDITGKLNEMVGFAPDEEIELFEEIKFEPCVMCEHLDKKTSFRLCQIEDGDIICFQKPLVNKEIECLYPAVPSFLEYVQNRQLVRFRALEKPKEDEFVLELSKQHTYDDVVEKVAEKLGLDDPSKLRLTSHNCYSQQPKPQPIKYRGVDHLSDMLVHYNQTSDILYYEVLDIPLPELQGLKTLKVAFHHATKEEVVIHNIRLPKQSTVGDVINELKTKVELSHPDAELRLLEVFYHKIYKIFPSTERIENINDQYWTLRAEEIPEEEKNIGPNDRLILVYHFAKETGQNQQVQNFGEPFFLVIHEGETLEEIKNRIQKKLHVSDEDFAKWKFAFMSMGRPEYLQDTDVVYNRFQRRDVYGAFEQYLGLEHADTTPKRAYAANQNRHAYEKPVKIYN
B3: OBERON2 (OBE2) (protein, UniProt Q9LUB7 1-574)
chain: MGTSSGSNHPHQMLPPRQQQRSGGGLETALSLVSSDQEPRRESPAESASSQETWPLGDTVAGKKSMSQKTEPDSMEQTVNVMHHVSNADKVSVRDIARERVELVAERMHRLPDEFLDELKNGLKSILEGNVAQSVDEFMFLQKVVQSRTDLSSVTLVRAHRVQLEILVAINTGIQAFLHPNISLSQPSLIEIFVYKRCRNIACQNQLPADDCYCDICTNRKGFCNLCMCTICNKFDFSVNTCRWIGCDLCSHWTHTDCAIRDGQITTGSSAKNNTSGPGEIVFKCRACNRTSELLGWVKDVFQHCAPNWDRESLMKELDFVSRIFRGSEDQRGRKLFWKCEELIDKIKGGLAEATAAKLILMFFQEIESDSAKSFENGEGGRLMAPQDACNRIAEVVQETLRKMEIVAEEKMRMFKKARMALETCDRELEDKAKEVSELKAERQKKKLQIDELERIVRLKQAEADMFQLKANEAKREADRLQRIVLAKMDKSEEEYASNYLKQRLSEAEAEKQYLFEKIKLQENSRVASQSSGGGGDPSQVMMYSKIRDLLQGYNLSPKVDPQLNERNPFRSNP
B4: SPINDLY (SPY) (enzyme, UniProt Q96301 1-914)
chain: MVGLEDDTERERSPVVENGFSNGSRSSSSSAGVLSPSRKVTQGNDTLSYANILRARNKFADALALYEAMLEKDSKNVEAHIGKGICLQTQNKGNLAFDCFSEAIRLDPHNACALTHCGILHKEEGRLVEAAESYQKALMADASYKPAAECLAIVLTDLGTSLKLAGNTQEGIQKYYEALKIDPHYAPAYYNLGVVYSEMMQYDNALSCYEKAALERPMYAEAYCNMGVIYKNRGDLEMAITCYERCLAVSPNFEIAKNNMAIALTDLGTKVKLEGDVTQGVAYYKKALYYNWHYADAMYNLGVAYGEMLKFDMAIVFYELAFHFNPHCAEACNNLGVLYKDRDNLDKAVECYQMALSIKPNFAQSLNNLGVVYTVQGKMDAAASMIEKAILANPTYAEAFNNLGVLYRDAGNITMAIDAYEECLKIDPDSRNAGQNRLLAMNYINEGLDDKLFEAHRDWGWRFTRLHPQYTSWDNLKDPERPITIGYISPDFFTHSVSYFIEAPLTHHDYTKYKVVVYSAVVKADAKTYRFRDKVLKKGGVWKDIYGIDEKKIASMVREDKIDILVELTGHTANNKLGTMACRPAPVQVTWIGYPNTTGLPTVDYRITDSLADPPDTKQKQVEELVRLPDCFLCYTPSPEAGPVCPTPALSNGFVTFGSFNNLAKITPKVLQVWARILCAVPNSRLVVKCKPFCCDSIRQRFLTTLEQLGLESKRVDLLPLILFNHDHMQAYSLMDISLDTFPYAGTTTTCESLYMGVPCVTMAGSVHAHNVGVSLLTKVGLGHLVAKNEDEYVQLSVDLASDVTALSKLRMSLRDLMAGSPVCNGPSFAVGLESAYRNMWKKYCKGEVPSLRRMEMLQKEVHDDPLISKDLGPSRVSVTGEATPSLKANGSAPVPSSLPTQSPQLSKRMDSTS
B5: TITANIA2 (TTA2) (protein, UniProt Q84TI3 1-1162)
chain: MKRLRSSDDLDFCNDKNVDGEPPNSDRPASSSHRGFFSGNNRDRGEDAAGFSRAFSRRRSNRDLDNHRPDARYHRSESACFSRRAFPKGFRSERERPNRDASVSSWRRFGGPGNDFGVDDRDRRLRDAERDRSLKSPSWSRDSPNELSKFKPLDSRNSRSRSKSLASPTWSKDSGSEQSKSVGNVVKKSEEEVQGKSSTTSSEMEEGELEPEPQPETASGLAHQTKHDCKLPSCSADDHKNARIDRSFQEIGKSAQLDANTESNRELSHVGGNREMETTDSMTDKKSVEDAENVPEHATESMHVSQNNVNDTSTALAIEHDHRDGTITASANKITDTVDEKGDKDEDYKENLHGVKLEETLYPDVPERLEELKEVKGNDGDANKAEVEGPECVEENALANRTPAEYISSVSDSSVHKCKDKGKNSDVPLTHLVGNALFSESKTEDLHDKDKDEKDDNFGGPSIRGFELFSSSPVRRAKKTEQSGVNKHKDEKLLLEPLDLSLSLPDVLLPIGGQDTNQLGSPVRSGSVRSLTDTFCTNSDGFTMSMSFSGSRSFNHNPSCSLSHNIGDNEQSVHSRPIFQGIDWQALSHNDSKYNENTVYQRLMENGNGSVQPRAMKGNLISGQADEEHLRLPDGSSKAANILEKQLSFQKSVDVRSACPRTGSLENGSKFTVEKKTAKDFYSGSNSWITGLEAGGHDFVETVIRYILSDSMPVMTKRFHEMPTRNITSLKENIRQMMLNMDKNVQLGAFQDALQNRTDITLELLTKSHRAQLEILVALKSGRSDFLLLDNSISSSHLAEIFMNMRCKNLSCRVLLPVDECDCRVCSRKDGFCSACMCLVCSNFDMASNTCSWVGCDVCLHWCHTDCGIKESYIRNGINASGAPGMTEMQFHCVACNHPSEMFGFVKEVFLNFAREWKFERFCKELEYVNKIFSSSKDSRGKQLRQAADAMLASLKSKLIGLPEACNRILGFISDCDSSTPAETSAPFIYEQPKPRHERGSPSQDTAWLRSVCSDNPHNQLKRSASVADAFHRERQVEICAVEMELERGSPKEPRFEELESIVRMKQAEAEMFQGRADDARREAEGLKRIAIAKKEKIEEEYNRRMGKLSMEDAQERRRRRYEELEAMQRGQREFYEMKMRMEEEMRGLLTKMEMTKQSLAL
B6: PROTEIN PHOSPHATASE2A PP2A-4 (AT3G25800) (protein, UniProt Q38950 1-587)
chain: MSMIDEPLYPIAVLIDELKNDDIQLRLNSIRRLSTIARALGEERTRKELIPFLSENNDDDDEVLLAMAEELGVFIPYVGGVEYAHVLLPPLETLSTVEETCVREKAVESLCRVGSQMRESDLVDHFISLVKRLAAGEWFTARVSACGVFHIAYPSAPDMLKTELRSLYTQLCQDDMPMVRRAAATNLGKFAATVESAHLKTDVMSMFEDLTQDDQDSVRLLAVEGCAALGKLLEPQDCVQHILPVIVNFSQDKSWRVRYMVANQLYELCEAVGPEPTRTELVPAYVRLLRDNEAEVRIAAAGKVTKFCRILNPEIAIQHILPCVKELSSDSSQHVRSALASVIMGMAPVLGKDATIEHLLPIFLSLLKDEFPDVRLNIISKLDQVNQVIGIDLLSQSLLPAIVELAEDRHWRVRLAIIEYIPLLASQLGVGFFDDKLGALCMQWLQDKVHSIRDAAANNLKRLAEEFGPEWAMQHIVPQVLEMVNNPHYLYRMTILRAVSLLAPVMGSEITCSKLLPVVMTASKDRVPNIKFNVAKVLQSLIPIVDQSVVEKTIRPGLVELSEDPDVDVRFFANQALQSIDNVMMSS

This passage reports binding results from PMC3885651.

Results are given in words; binding and its absence hold for the method and conditions named. Binding seen in cells or lysates may run through a third protein. A yes stands for co-enrichment or nearness to the bait. Other partners may have been found. Where a sequence is shown, tags or fusion partners need not be part of it.

One assay has as its target T1, GS-tagged TIFY8 (TIFY8-GS) (Arabidopsis thaliana). In words: affinity purification with mass spectrometry; tandem affinity purification of TIFY8-GS (IgG-Sepharose, then streptavidin Sepharose) from Arabidopsis PSB-D cell culture extract; MALDI-TOF/TOF (mock) and LTQ Orbitrap (mock or 1 h 50 µM JA); background proteins of control purifications subtracted.
Turning to “NOVEL INTERACTOR OF JAZ (NINJA), endogenous (from UniProt Q9SV55 1-425)”, the binding result is recorded as “binds”.
For “Clathrin, heavy chain (AT3G08530/AT3G11130) (from UniProt Q0WNJ6)”, the binding entry was “binds”.
On to “PEAPOD2 (PPD2), endogenous (from UniProt Q8GY55 1-315)”, for which the binding result was “binds”.
Turning to “PROTEIN PHOSPHATASE2A PP2A-3 (AT2G42500) (from UniProt Q07100 1-313) (enzyme)”, the binding result is recorded as “binds”.

The target is the same in the next assay. Described as above. This is another data set of the same source.
B1: the binding result is “binds”.
In the case of B2, the binding result was “binds”.
For B3, the binding result is “binds”.
B4: the binding entry was “binds”.
With B5, the binding entry is “binds”.
For B6, the binding result is “binds”.
